The results in this text go back to PubChem BioAssay AID662 (National Center for Advancing Translational Sciences (NCATS), 2007).

The other results are listed elsewhere or left out. Further columns of the screen follow, without active or inactive calls. Compounds called inactive in the main read-out are mostly missing here. Potencies come from curve fits of mixed quality, noted in brackets.

This assay is described as follows: Cell signaling CRE-BLA (Fsk stim). The note with it: CHO CRE-bla reporter (cAMP response element driving beta-lactamase), forskolin EC10, beta-lactamase ratio; measured here: 460 nm blue channel. The procedure, abridged: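 Reporter-gene assay: CHO cells with beta-lactamase behind cAMP responsive elements, co-treated with compound and EC10 NKH 477 for 3 hours at 37 degrees Celsius. Activity came from the 460/530 nm CCF4 emission ratio.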
As to `CCCOc1nc(N)c(C#N)c(-c2ccccc2F)c1C#N`, the AC50 was 5.01 µM [rising, full curve].
With `CCNc1ncc2nc(-c3ccccc3)c(=O)n(-c3ccc(OC)cc3)c2n1`, the AC50 was 10 µM [rising, partial curve].
As to `CCC(c1nnnn1Cc1cccs1)N1CCN(c2nc3ccccc3s2)CC1` (stereo not drawn), the AC50 was 15.8 µM [falling, single point].
The same measure for `Cn1nc(-c2ccc(Cl)cc2)c2cc(C(=O)NCc3ccco3)sc21`: 12.6 µM [rising, partial curve].
The same measure for `Cc1ccc(S(=O)(=O)N2CCC(C(=O)OCC(=O)N3CCc4ccccc43)CC2)cc1`: 3.98 µM [falling, single point].
In the case of `C[C@H](NC[C@H](O)CP(=O)(O)CC1CCCCC1)c1ccc(Cl)c(Cl)c1`, the AC50 is 25.1 µM [falling, single point].
The same measure for `CN(C)c1ccc(C2C=C(c3ccc(Cl)cc3OC(F)F)Nc3ncnn32)cc1` (stereo not drawn): 15.8 µM [rising, partial curve].
The same measure for `COCCN1CN=C(Nc2nc3ccccc3s2)NC1`: 12.6 µM [falling, single point]; for `N#Cc1c(N)nc2c(c1-c1ccco1)CCCCC2`: 10 µM [rising, partial curve].
Regarding `O=C(C1CCN(S(=O)(=O)c2cccc3nsnc23)CC1)N1CCc2ccccc2C1`, the AC50 is 3.98 µM [falling, single point].
As to `CN(C)c1nc(Oc2ccc(=O)n(-c3ccccc3)n2)nc(N2CCOCC2)n1`, the AC50 was 20 µM [rising, single point].
The same measure for `Nc1cc(=O)nc(SCc2ccccc2)n1Cc1ccco1`: 3.16 µM [falling, single point]; for `Cc1ccc(S(=O)(=O)c2cccc(S(=O)(=O)N3CCCC3)c2)cc1S(=O)(=O)N1CCCC1`: 20 µM [falling, single point]; for `OC(CN1C2=NCCN2c2ccccc21)c1ccc2c(c1)OCO2` (stereo not drawn): 10 µM [rising, partial curve].
The same measure for `CCOc1cc(N2CCOCC2)c(OCC)cc1NC(=O)c1nc2nc(C)cc(C)n2n1`: 6.31 µM [rising, full curve].
The same measure for `c1ccc(CCc2ccccc2-c2nc(-c3ccccn3)no2)cc1`: 31.6 µM [falling, single point]; for `Brc1ccc(NCc2nnc3n2CCCCC3)cc1`: 25.1 µM [rising, single point].
With `Cc1cc2cc(CN(Cc3cccs3)Cc3nnnn3CC3CCCO3)c(=O)[nH]c2cc1C` (stereo not drawn), the AC50 was 12.6 µM [rising, single point].
`CCOc1ccc(CC(=O)Nc2c(C(N)=O)oc3ccc(Br)cc23)cc1OCC`: the AC50 was 6.31 µM [rising, partial curve].
Take `Cn1c(SCc2nc3ccccc3n2CCO)nc2ccccc21`: the AC50 was 20 µM [rising, single point].
The same measure for `CC(C)(C)C(=O)[C@@H]1[C@@H]2C(=O)N(c3ccc4c(c3)OCCO4)C(=O)[C@@H]2C2c3ccccc3C=CN21` (stereo partly drawn): 15.8 µM [falling, partial curve]; for `COc1ccc(-c2cc(CCCC(=O)NCCc3cc(OC)ccc3OC)no2)cc1`: 5.01 µM [rising, full curve, poor fit].
The same measure for `Cc1cc(=O)[nH]c(S/C=C/c2ccccc2)n1`: 10 µM [falling, partial curve]; for `CC(C(=O)OCC(=O)Nc1ccc2c(c1)OCO2)N1C(=O)c2ccccc2C1=O` (stereo not drawn): 3.98 µM [falling, partial curve, poor fit]; for `CN(C)c1nc(-c2cccc(NS(C)(=O)=O)c2)nc2ccccc12`: 12.6 µM [rising, partial curve].
The same measure for `O=C(Cc1cc(=O)[nH]c(=O)[nH]1)NCCN1CCOCC1`: 10 µM [rising, partial curve].
Regarding `FC(F)(F)c1cc(-c2ccccc2)nc(-n2cncn2)n1`, the AC50 was 15.8 µM [rising, single point].
`O=c1c2[nH]c3ccccc3c2ncn1CCC1=CCCCC1`: the AC50 was 0.316 µM [rising, full curve].
The same measure for `CCCP(=O)(CC(=O)O)c1ccccc1` (stereo not drawn): 1.58 µM [rising, partial curve]; for `N#CCCn1c(=O)c(-c2ccccc2)nc2cnc(Nc3ccccc3)nc21`: 5.01 µM [rising, partial curve]; for `COc1cccc(-c2nn(C)c3sc(C(=O)N4CCOCC4)cc23)c1`: 12.6 µM [rising, partial curve].
Take `COc1ccc(-n2c(Cc3cccn3C)nnc2SCC(=O)NCc2ccco2)cc1`: the AC50 was 12.6 µM [rising, single point].
The same measure for `COc1ccccc1CNc1ccnc(-c2cccc(NS(C)(=O)=O)c2)n1`: 6.31 µM [rising, partial curve]; for `CCN(CC)S(=O)(=O)c1ccc(Nc2cc(C)nc3ncnn23)cc1`: 25.1 µM [rising, single point]; for `CC(C)(C)NC(=O)[C@@H]1C[C@@H]2CCCC[C@@H]2CN1C[C@@H](O)[C@H](Cc1ccccc1)NC(=O)[C@H](CC(N)=O)NC(=O)c1ccc2ccccc2n1`: 31.6 µM [falling, single point].
Take `C/C(Nc1ccc(F)cc1)=C(/C#N)C(N)=O`: the AC50 was 2.51 µM [falling, partial curve, poor fit].
The same measure for `CN1CCN(c2ncnc3ccc(-c4ccccc4C(F)(F)F)cc23)CC1`: 12.6 µM [rising, partial curve]; for `COc1ccc(-c2nnc(CSc3nc4ccccc4c(=O)n3CC3CCCO3)o2)cc1OC` (stereo not drawn): 0.631 µM [rising, full curve]; for `COc1cc(C(=O)Nc2ccccc2N2CCN(S(C)(=O)=O)CC2)cc(OC)c1OC`: 12.6 µM [rising, partial curve].
Take `CCOC(=O)Nc1cc(OCC)c(NC(=O)C2CC2)cc1OCC`: the AC50 is 12.6 µM [rising, single point].
Consider `CCc1c2c(nc3ccc(OC)cc13)COC2`, for which the AC50 is 10 µM [rising, partial curve].
As to `O=c1c(-c2ccc(Cl)cc2)nc2cnc(N3CCNCC3)nc2n1Cc1ccc(F)cc1`, the half-maximal activity concentration (AC50) is 1.58 µM [rising, full curve].
Regarding `c1ccc(CSCCc2ccncc2)cc1`, the AC50 is 2.51 µM [rising, single point].
The same measure for `N#Cc1cc2c(nc1SCc1ccccc1)CCCC2=O`: 12.6 µM [rising, single point]; for `CCOC(=O)C1CCCN(C2CC(=O)N(c3cccc(C(F)(F)F)c3)C2=O)C1` (stereo not drawn): 12.6 µM [falling, single point]; for `CCNc1cc(=O)n(C)c(=O)n1C`: 12.6 µM [rising, single point].
The same measure for `NCCCCCCNS(=O)(=O)c1cccc2ccccc12`: 31.6 µM [rising, single point]; for `CCCc1[nH]nc2c1C(CCc1ccccc1)C(C#N)=C(N)O2` (stereo not drawn): 0.251 µM [falling, full curve]; for `O=C(Nc1nc2ccccc2s1)C1CCCN1S(=O)(=O)c1ccc(Cl)cc1` (stereo not drawn): 15.8 µM [falling, partial curve].
With `COc1cc2c(cc1NC(C)=O)CCCC2`, the AC50 was 0.00398 µM [falling, full curve].
The same measure for `Cc1ccc(Cn2nnc3c(=O)n(CC(=O)NCc4ccco4)cnc32)cc1`: 0.0794 µM [falling, full curve].
As for `Cn1c(=S)[nH]c2cccnc21`, the AC50 is 25.1 µM [rising, single point].
For the molecule `O=C(CCc1ccc(CCC(=O)c2cccs2)s1)c1cccs1`, the AC50 was 0.794 µM [falling, partial curve].
The same measure for `Cc1c(C#N)c2ncnc(N)c2n1-c1ccccc1`: 12.6 µM [falling, partial curve].
For `COc1nc(N2CCOCC2)nc(-n2cccc2)n1`, the concentration at half-maximal activity (AC50) is 10 µM [rising, single point].
As for `c1ccc2oc(SCc3cn4ccccc4n3)nc2c1`, the AC50 was 12.6 µM [rising, single point].
`CC1CCN(C(=O)Cn2c(=O)n(Cc3ccc4c(c3)OCO4)c(=O)c3ccccc32)CC1`: the AC50 is 0.631 µM [falling, partial curve].
The same measure for `Cc1ccc(S(=O)(=O)NC2OC(=O)C(Cl)=C2Cl)cc1` (stereo not drawn): 25.1 µM [falling, single point]; for `Cc1c(Br)cc(C(=O)NCCCN2CCOCC2)c(C)c1C`: 0.00398 µM [falling, full curve].
The same measure for `O=C(CSc1nnc(-c2ccccn2)n1Cc1ccco1)c1ccc(-c2ccccc2)cc1`: 25.1 µM [falling, partial curve]; for `C=CCc1c(C)nc(SCC(=C)C)[nH]c1=O`: 0.631 µM [falling, full curve, poor fit].
Consider `COC(=O)C1CCN(C(c2cc(OC)c(OC)c(OC)c2)c2sc3nc(C)nn3c2O)CC1` (stereo not drawn), for which the AC50 was 12.6 µM [rising, partial curve].
`N#CCCn1c(=O)c(-c2cccs2)nc2cnc(N3CCNCC3)nc21`: the AC50 is 10 µM [rising, partial curve].
The same measure for `O=C(c1ccc2c(c1)OCO2)N1CCCCC1`: 3.16 µM [rising, partial curve, poor fit].
For `CCOC(=O)N1CC=C2C(C#N)=C(N)C(C#N)(C#N)[C@H](c3ccc(OC(C)C)c(OCC)c3)[C@H]2C1`, the AC50 was 10 µM [rising, partial curve, poor fit].
With `COc1ccc(S(=O)(=O)Cc2ccc(C(=O)N3CCN(c4ccc(Cl)cc4)CC3)o2)cc1`, the AC50 is 25.1 µM [falling, single point].
With `COc1ccc(C2C(C(=O)N3CCN(C)CC3)c3ccccc3C(=O)N2C2CCCCC2)cc1` (stereo not drawn), the AC50 was 0.794 µM [falling, full curve, poor fit].
The same measure for `O=C(Nc1nc(-c2cccs2)cs1)c1ccc(S(=O)(=O)N2CCCC2)cc1`: 6.31 µM [falling, partial curve].

Usually AC50 stands for the midpoint of the concentration-response curve, whichever way the signal moves.
